Data as given in PubChem BioAssay AID258 (DTP/NCI, 2004).
The list does not hold the whole screen: it gathers some chemical classes. Not every dose and run of a compound is shown. T/C: endpoint of the treated group in % of that of the vehicle group. For survival time, this PubChem deposit counts one and a half times the control or more as active, and values a quarter to a half above the control carry no call in these data; other NCI protocols may use other cut-offs. Schedules are NCI's codes, read here as Q, the interval in days (D) or hours (H), X, the number of doses. Some schedules carry Z or #; the key to these is not given. Some T/C values are followed by the survivors on the day toxicity was checked, most often the fifth; without a count or a note in brackets, all were alive then.

Test system: CD2F1 mice, L1210 leukemia sc, survival T/C
Assay: NCI In Vivo Anticancer Drug Screen. Data for tumor model L1210 Leukemia (subcutaneous) in CD2F1 (CDF1) mice
Details: higher T/C = longer survival
Protocol: The antitumor activity of compounds was measured in mice bearing transplantable tumors. Survival or tumor size were measured and the results are expressed as the measurement made in the treated group (T) divided by the measurement made in the vehicle treated control group (C). The tumor model used in this assay is L1210 Leukemia (subcutaneous) in CD2F1 (CDF1) mice

**Q.** For `NC(=O)c1[nH]cnc1/N=N\N(CCCl)CCCl`, which T/C (T/C endpoint: mean survival time, dose: 50.0 mg/kg/injection, schedule: Q01DX001 (sc), vehicle: steroid suspending solution) is on record?
**A.** 127 % of control

**Q.** And the T/C (T/C endpoint: mean survival time, dose: 100.0 mg/kg/injection, schedule: Q01DX001 (sc), vehicle: steroid suspending solution)?
**A.** 139 % of control

**Q.** What about the T/C (T/C endpoint: mean survival time, dose: 200.0 mg/kg/injection, schedule: Q01DX001 (sc), vehicle: steroid suspending solution) of the same compound?
**A.** 172 % of control

**Q.** And the T/C (T/C endpoint: mean survival time, dose: 400.0 mg/kg/injection, schedule: Q01DX001 (sc), vehicle: steroid suspending solution)?
**A.** 218 % of control

**Q.** And the T/C (T/C endpoint: mean survival time, dose: 800.0 mg/kg/injection, schedule: Q01DX001 (sc), vehicle: steroid suspending solution)?
**A.** 213 % of control

**Q.** What about the T/C (T/C endpoint: median survival time, dose: 1.56 mg/kg/injection, schedule: Q01DX009 (ip), vehicle: saline with Tween-80) of the same compound?
**A.** 103 % of control

**Q.** And the T/C (T/C endpoint: median survival time, dose: 3.13 mg/kg/injection, schedule: Q01DX009 (ip), vehicle: saline with Tween-80)?
**A.** 104 % of control

**Q.** What about the T/C (T/C endpoint: median survival time, dose: 6.25 mg/kg/injection, schedule: Q01DX009 (ip), vehicle: saline with Tween-80) of the same compound?
**A.** 106 % of control

**Q.** And the T/C (T/C endpoint: median survival time, dose: 12.5 mg/kg/injection, schedule: Q01DX009 (ip), vehicle: saline + alcohol)?
**A.** 151 % of control

**Q.** And the T/C (T/C endpoint: median survival time, dose: 12.5 mg/kg/injection, schedule: Q01DX009 (ip), vehicle: saline with Tween-80)?
**A.** 116 % of control

**Q.** What about the T/C (T/C endpoint: median survival time, dose: 12.5 mg/kg/injection, schedule: Q01DX009 (sc), vehicle: saline + alcohol) of the same compound?
**A.** 123 % of control

**Q.** What about the T/C (T/C endpoint: median survival time, dose: 12.5 mg/kg/injection, schedule: Q01DX009 (sc), vehicle: saline) of the same compound?
**A.** 113 % of control [9 of 10 alive]

**Q.** And the T/C (T/C endpoint: median survival time, dose: 25.0 mg/kg/injection, schedule: Q01DX009 (ip), vehicle: saline + alcohol)?
**A.** 202 % of control [9 of 10 alive]

**Q.** And the T/C (T/C endpoint: median survival time, dose: 25.0 mg/kg/injection, schedule: Q01DX009 (ip), vehicle: saline with Tween-80)?
**A.** 164 % of control

**Q.** And the T/C (T/C endpoint: median survival time, dose: 25.0 mg/kg/injection, schedule: Q01DX009 (sc), vehicle: saline + alcohol)?
**A.** 202 % of control

**Q.** What about the T/C (T/C endpoint: median survival time, dose: 25.0 mg/kg/injection, schedule: Q01DX009 (sc), vehicle: saline) of the same compound?
**A.** 125 % of control

**Q.** What about the T/C (T/C endpoint: median survival time, dose: 25.0 mg/kg/injection, schedule: Q01DX Z (sc), vehicle: carboxymethylcellulose (CMC)) of the same compound?
**A.** 170 % of control

**Q.** And the T/C (T/C endpoint: median survival time, dose: 33.3 mg/kg/injection, schedule: Q01DX009 (sc), vehicle: saline with Tween-80, evaluated on day 30)?
**A.** 229 % of control

**Q.** And the T/C (T/C endpoint: median survival time, dose: 33.3 mg/kg/injection, schedule: Q01DX009 (sc), vehicle: saline with Tween-80, evaluated on day 45)?
**A.** 218 % of control

**Q.** What about the T/C (T/C endpoint: median survival time, dose: 50.0 mg/kg/injection, schedule: Q01DX001 (sc), vehicle: steroid suspending solution, evaluated on day 6) of the same compound?
**A.** 126 % of control

**Q.** What about the T/C (T/C endpoint: median survival time, dose: 50.0 mg/kg/injection, schedule: Q01DX001 (sc), vehicle: steroid suspending solution, evaluated on day 27) of the same compound?
**A.** 127 % of control

**Q.** And the T/C (T/C endpoint: median survival time, dose: 50.0 mg/kg/injection, schedule: Q01DX009 (ip), vehicle: saline + alcohol)?
**A.** 261 % of control

**Q.** What about the T/C (T/C endpoint: median survival time, dose: 50.0 mg/kg/injection, schedule: Q01DX009 (ip), vehicle: saline with Tween-80) of the same compound?
**A.** 172 % of control

**Q.** And the T/C (T/C endpoint: median survival time, dose: 50.0 mg/kg/injection, schedule: Q01DX009 (sc), vehicle: saline + alcohol)?
**A.** 224 % of control

**Q.** And the T/C (T/C endpoint: median survival time, dose: 50.0 mg/kg/injection, schedule: Q01DX009 (sc), vehicle: saline with Tween-80, evaluated on day 30)?
**A.** 247 % of control

**Q.** And the T/C (T/C endpoint: median survival time, dose: 50.0 mg/kg/injection, schedule: Q01DX009 (sc), vehicle: saline with Tween-80, evaluated on day 45)?
**A.** 252 % of control

**Q.** And the T/C (T/C endpoint: median survival time, dose: 50.0 mg/kg/injection, schedule: Q01DX009 (sc), vehicle: saline)?
**A.** 281 % of control

**Q.** And the T/C (T/C endpoint: median survival time, dose: 50.0 mg/kg/injection, schedule: Q01DX Z (sc), vehicle: carboxymethylcellulose (CMC))?
**A.** 358 % of control

**Q.** And the T/C (T/C endpoint: median survival time, dose: 66.7 mg/kg/injection, schedule: Q01DX009 (ip), vehicle: saline with Tween-80)?
**A.** 301 % of control

**Q.** And the T/C (T/C endpoint: median survival time, dose: 75.0 mg/kg/injection, schedule: Q01DX009 (ip), vehicle: saline with Tween-80)?
**A.** 132 % of control

**Q.** What about the T/C (T/C endpoint: median survival time, dose: 75.0 mg/kg/injection, schedule: Q01DX009 (sc), vehicle: saline with Tween-80, evaluated on day 30) of the same compound?
**A.** 332 % of control

**Q.** What about the T/C (T/C endpoint: median survival time, dose: 75.0 mg/kg/injection, schedule: Q01DX009 (sc), vehicle: saline with Tween-80, evaluated on day 45) of the same compound?
**A.** 260 % of control

**Q.** And the T/C (T/C endpoint: median survival time, dose: 100.0 mg/kg/injection, schedule: Q01DX001 (sc), vehicle: steroid suspending solution, evaluated on day 6)?
**A.** 132 % of control

**Q.** What about the T/C (T/C endpoint: median survival time, dose: 100.0 mg/kg/injection, schedule: Q01DX001 (sc), vehicle: steroid suspending solution, evaluated on day 27) of the same compound?
**A.** 133 % of control

**Q.** And the T/C (T/C endpoint: median survival time, dose: 100.0 mg/kg/injection, schedule: Q01DX009 (ip), vehicle: saline + alcohol)?
**A.** 327 % of control

**Q.** What about the T/C (T/C endpoint: median survival time, dose: 100.0 mg/kg/injection, schedule: Q01DX009 (ip), vehicle: saline with Tween-80) of the same compound?
**A.** 232 % of control

**Q.** What about the T/C (T/C endpoint: median survival time, dose: 100.0 mg/kg/injection, schedule: Q01DX009 (sc), vehicle: saline + alcohol) of the same compound?
**A.** 157 % of control

**Q.** What about the T/C (T/C endpoint: median survival time, dose: 100.0 mg/kg/injection, schedule: Q01DX009 (sc), vehicle: saline with Tween-80) of the same compound?
**A.** 262 % of control

**Q.** And the T/C (T/C endpoint: median survival time, dose: 100.0 mg/kg/injection, schedule: Q01DX009 (sc), vehicle: saline)?
**A.** 261 % of control

**Q.** What about the T/C (T/C endpoint: median survival time, dose: 100.0 mg/kg/injection, schedule: Q01DX Z (sc), vehicle: carboxymethylcellulose (CMC)) of the same compound?
**A.** 276 % of control

**Q.** And the T/C (T/C endpoint: median survival time, dose: 150.0 mg/kg/injection, schedule: Q01DX009 (ip), vehicle: saline with Tween-80)?
**A.** 161 % of control

**Q.** And the T/C (T/C endpoint: median survival time, dose: 200.0 mg/kg/injection, schedule: Q01DX001 (sc), vehicle: steroid suspending solution, evaluated on day 6)?
**A.** 153 % of control

**Q.** And the T/C (T/C endpoint: median survival time, dose: 200.0 mg/kg/injection, schedule: Q01DX001 (sc), vehicle: steroid suspending solution, evaluated on day 27)?
**A.** 155 % of control

**Q.** And the T/C (T/C endpoint: median survival time, dose: 200.0 mg/kg/injection, schedule: Q01DX009 (ip), vehicle: saline + alcohol)?
**A.** 136 % of control

**Q.** And the T/C (T/C endpoint: median survival time, dose: 200.0 mg/kg/injection, schedule: Q01DX009 (sc), vehicle: saline + alcohol)?
**A.** 128 % of control

**Q.** And the T/C (T/C endpoint: median survival time, dose: 200.0 mg/kg/injection, schedule: Q01DX009 (sc), vehicle: saline with Tween-80)?
**A.** 195 % of control

**Q.** And the T/C (T/C endpoint: median survival time, dose: 200.0 mg/kg/injection, schedule: Q01DX009 (sc), vehicle: saline)?
**A.** 215 % of control

**Q.** What about the T/C (T/C endpoint: median survival time, dose: 200.0 mg/kg/injection, schedule: Q01DX Z (sc), vehicle: carboxymethylcellulose (CMC)) of the same compound?
**A.** 217 % of control

**Q.** What about the T/C (T/C endpoint: median survival time, dose: 400.0 mg/kg/injection, schedule: Q01DX001 (sc), vehicle: steroid suspending solution, evaluated on day 6) of the same compound?
**A.** 215 % of control

**Q.** And the T/C (T/C endpoint: median survival time, dose: 400.0 mg/kg/injection, schedule: Q01DX001 (sc), vehicle: steroid suspending solution, evaluated on day 27)?
**A.** 216 % of control

**Q.** What about the T/C (T/C endpoint: median survival time, dose: 400.0 mg/kg/injection, schedule: Q01DX009 (ip), vehicle: saline + alcohol) of the same compound?
**A.** 86 % of control [9 of 10 alive]

**Q.** And the T/C (T/C endpoint: median survival time, dose: 400.0 mg/kg/injection, schedule: Q01DX009 (sc), vehicle: saline + alcohol)?
**A.** 107 % of control

**Q.** What about the T/C (T/C endpoint: median survival time, dose: 400.0 mg/kg/injection, schedule: Q01DX009 (sc), vehicle: saline with Tween-80, evaluated on day 30) of the same compound?
**A.** 151 % of control

**Q.** And the T/C (T/C endpoint: median survival time, dose: 400.0 mg/kg/injection, schedule: Q01DX009 (sc), vehicle: saline with Tween-80, evaluated on day 60)?
**A.** 169 % of control

**Q.** And the T/C (T/C endpoint: median survival time, dose: 400.0 mg/kg/injection, schedule: Q01DX009 (sc), vehicle: saline)?
**A.** 157 % of control

**Q.** What about the T/C (T/C endpoint: median survival time, dose: 400.0 mg/kg/injection, schedule: Q01DX Z (sc), vehicle: carboxymethylcellulose (CMC)) of the same compound?
**A.** 176 % of control

**Q.** And the T/C (T/C endpoint: median survival time, dose: 600.0 mg/kg/injection, schedule: Q01DX009 (sc), vehicle: saline with Tween-80, evaluated on day 30)?
**A.** 142 % of control

**Q.** And the T/C (T/C endpoint: median survival time, dose: 600.0 mg/kg/injection, schedule: Q01DX009 (sc), vehicle: saline with Tween-80, evaluated on day 60)?
**A.** 171 % of control

**Q.** What about the T/C (T/C endpoint: median survival time, dose: 800.0 mg/kg/injection, schedule: Q01DX001 (sc), vehicle: steroid suspending solution, evaluated on day 6) of the same compound?
**A.** 212 % of control

**Q.** And the T/C (T/C endpoint: median survival time, dose: 800.0 mg/kg/injection, schedule: Q01DX001 (sc), vehicle: steroid suspending solution, evaluated on day 27)?
**A.** 216 % of control

**Q.** What about the T/C (T/C endpoint: median survival time, dose: 800.0 mg/kg/injection, schedule: Q01DX009 (sc), vehicle: saline with Tween-80) of the same compound?
**A.** 139 % of control

**Q.** What about the T/C (T/C endpoint: median survival time, dose: 1000.0 mg/kg/injection, schedule: Q01DX009 (sc), vehicle: saline with Tween-80) of the same compound?
**A.** 127 % of control
